The target in experiment [1] is cynomolgus monkey TIGIT expressed on cells (cynomolgus monkey). The experiment can be described thus: flow cytometry on cells overexpressing cynomolgus monkey TIGIT, labelled anti-human IgG (method of Example 5 with TIGIT). (In general: Flow cytometry measures light scatter and fluorescence of single cells or particles in a stream.)
Experiment [2] has as its target cynomolgus monkey TIGIT recombinant protein (cynomolgus monkey). The experiment can be described thus: ELISA, plate coated with cynomolgus monkey TIGIT recombinant protein, HRP anti-human IgG, OD450 (method of Example 4 with TIGIT). For orientation: In an ELISA, binding on a coated surface is turned into a signal by an enzyme label.

No constants are given. Whether binding was seen depends on the method and setting. Some results given as binding are weak or reduced against the parent protein; the word gives no strength.

B1: anti-TIGIT antibody 1708 (antibody, human IgG4 S228P, kappa, V domains shown)
VH: EVQLVQSGAEVKKPGASVKVSCKASGYTFTNYWMHWVRQAPGQGLEWMGRIDPDSTGSKYNEKFKTRVTMTRDTSTSTVYMELSSLRSEDTAVYYCAREGAYGYYFDYWGQGTLVTVSS
VL: DIQMTQSPSSLSASVGDRVTITCRASENIYSYLAWYQQKPGKSPKLLIYNARTLAEGVPSRFSGSGSGTDFTLTISSLQPEDFATYYCQYHSGSPLPFGGGTKVEIKR
notes: human IgG4 subtype with S228P; kappa light chain
As to B1, the binding result in experiment [1] and in experiment [2] was “binds” throughout.
